## Percent effect of library compounds

From ChEMBL document CHEMBL3988442, “University of Dundee, Small-Polar-MMV Screening Library” (2021).

Mtb glucose medium: 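Phenotypic screen: M. tuberculosis growth, glucose 7H9 medium, 3 days; the read-out is not stated. Compounds at 50 µM. Higher reads as more growth inhibition (inferred: compounds with an IC50 in retests scored well above the rest). Of about 69,000 compounds tested this way, about 760 (1.1%) reached 50% or more in at least one test.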
Mtb cholesterol medium: 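Phenotypic screen: M. tuberculosis growth, cholesterol and DPPC medium, 4 days; the read-out is not stated. Concentration: 50 µM. The record gives no direction; compounds that gave an IC50 in retests scored well above the rest, so higher reads as more growth inhibition. Of about 69,000 compounds tested this way, about 370 (0.54%) reached 50% or more in at least one test.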

Each number is a percent effect as filed. How 0% and 100% were set is not recorded. Most values in the screen are low, and negative values occur. The compounds are a random part of those screened. Two or more numbers in one place are separate tests of the same structure; such repeats can differ widely.

Compound | Mtb glucose medium | Mtb cholesterol medium
COCC(C)NC(=O)c1cc(C)n(-c2cccc(OC)c2)c1C (stereo not shown) | -2.4 | -7.681
CN(CC(=O)Nc1ccon1)S(=O)(=O)c1cc(Cl)ccc1Cl | 7.266 | -21.31
Cc1nc(CN2CCN(C(=O)c3cc(C4CC4)on3)CC2)cs1 | 19.14 | -11.52
COc1ccc(Cl)cc1NCC(=O)NCCc1ccccn1 | 25.76 | -3.28
Cc1cc(C)n(C2CCCN(C(=O)c3c(C)c(C)n[nH]c3=O)C2)n1 (stereo not shown) | -20.57 | -11.79
O=C(c1cccs1)N1CCC(n2nc(-c3ccco3)ccc2=O)CC1 | -3.107 | -2.928
CCn1cc(CN2CCCn3nc(CNS(C)(=O)=O)cc3C2)c(C)n1 | -10.67 | -16.07
COc1cccc(-c2cc(C(=O)NCCn3nc(C)nc3C)[nH]n2)c1 | 20.62 | 0.7489
COc1ccccc1CC(=O)NC(CC(=O)O)c1ccc(C)cc1 (stereo not shown) | -37.95 | -11.94 & -16.64
CC(C)CCN1CCN(c2ncnc3nc(N)ccc23)CC1 | -24.68 & 2.579 | -5.018
CC(=O)N1CCN(C(=O)Nc2ccccc2)CC2(CC(=O)N(C)C2)C1 (stereo not shown) | -29.57 | -31.13
CC(NC(=O)CCc1cccs1)c1nnc2n1CCC2 (stereo not shown) | -9.923 | -2.025
O=C(NCCN1CCCCCC1=O)c1n[nH]c(=O)c2ccccc12 | -4.427 | -8.869
CCOc1cc(CNCCCn2ccnc2)cc(Cl)c1OC | -38.61 | -11.44 & -16.3
CCN1CCN(c2nc(O)cc(Cc3ccccc3F)n2)CC1 | -0.2641 | 8.782
CCOCCn1c(=O)n(CCC(C)C)c2ncc(C(=O)O)cc21 | -19.73 & -6.192 | -14.47 & -10.83
O=C(CCc1cc(O)no1)N1CCCC(OCc2cccnc2)C1 (stereo not shown) | -9.292 | -0.28
CCn1nc2c(cc1=O)CN(Cc1cc(C)on1)CC2 | -19.01 | 8.5
CC(=O)N1CCCN(S(=O)(=O)c2cc3ccccc3o2)CC1 | 29.04 & 5.646 | 15.9
CCO[C@H]1C[C@@H](O)C12CCN(C1CCN(c3ccccc3)CC1)CC2 | -2.758 & 0.7422 | 16.78
COCC1CN(Cc2cc(C)on2)Cc2cn(CC3CCCC3)nc21.O=C(O)C(F)(F)F.O=C(O)C(F)(F)F (stereo not shown) | -5.598 & -3.784 | 7.128
F[C@@H]1CN(Cc2ccccc2)C[C@@H]1OCc1nc2cnccc2[nH]1 | -13.34 & -7.035 | -24.62
Cc1ncnc2c1CCN(C(=O)c1ccsc1)CC2 | -19.02 & -4.478 | -13.28
O=C(Nc1cccc(F)c1)C1CCCN1c1nccs1 (stereo not shown) | -15.51 | -14.84
O=C(NCCN1CCC(c2cccs2)CC1)c1ccc(F)cc1Cl | -1.38 | -1.143
CC(C)C(=O)N1CCC(Cc2nccnc2Nc2ccccn2)CC1 | -6.103 | -12.22
Cc1cc(NS(=O)(=O)c2cnc3onc(C)c3c2)no1 | -11.75 | -1.616
O=C(O)C(F)(F)F.[H][C@@]12COC[C@]1(CNS(=O)(=O)CC)CN(Cc1ccsc1)C2 | -29.67 | -30.99
CSc1ccc2cc(CN(C)CCc3cn[nH]c3)c(=O)[nH]c2c1 | -43.99 & -10.03 | -0.4801 & -8.828
CCCc1ccc(C(=O)N2CCc3c(nc(C)nc3N(C)C)C2)cc1 | 24.92 | -0.2796
CCOC(C)c1noc(CN2CCN(Cc3cccc(F)c3)CC2)n1 (stereo not shown) | -9.061 | 18.33
CCC1CN(CCC(=O)N(C)C)CCN1CCOC (stereo not shown) | 8.839 | -6.649
O=C1CCCN1C1CCN(S(=O)(=O)CCOc2ccc(F)cc2)CC1 | 6.147 | -25.07
CCC(=O)NCC(c1ccc(SC)cc1)N1CCc2sccc2C1 (stereo not shown) | 35.87 | 4.994
CN(Cc1cn(-c2ccccc2)nn1)C1CCCN(c2cccnn2)C1 (stereo not shown) | 12.76 | 10.12
Cc1onc(N)c1S(=O)(=O)N1CCCCC1C (stereo not shown) | -5.48 | 7.127
CCc1c(C)sc2nc3n(CCN4CCCCC4)nc(SC)n3c(=O)c12 | 7.319 | -24.29
Cn1nc(Cn2cccn2)c2c1CN(Cc1ccsc1)C2.O=C(O)C(F)(F)F | -11.81 | 4.035
CN1CCCN(C(=O)c2nc3c(n2C)CCN(c2ncccn2)C3)CC1 | -5.382 & -8.74 | -8.308
CN(Cc1nccn1C)CC1CCOc2ccccc2C1 (stereo not shown) | -23.24 | -26.7
Cc1ccc(C)c(NC(=O)C(C)N2CCCN(c3nccs3)CC2)c1 (stereo not shown) | 13.03 | 0.8099
CCc1ccc(S(=O)(=O)Nc2ccncc2)s1 | 9.143 & -1.156 | 13.78
Cc1cc(C)c(C(=O)NC(c2nnc3n2CCNCC3)C(C)C)c(C)c1 (stereo not shown) | 23.66 | 11.63
COCc1cc(N(C)Cc2cnccn2)nc(C(C)(C)C)n1 | 11.58 & 5.561 | -2.555
CSC1(CNC(=O)c2ccn(-c3ccccc3F)n2)CCOCC1 | 12.5 & 8.197 | 4.81
CC(=O)NCC(=O)N1CCCC(C(=O)c2ccc(C(C)(C)C)cc2)C1 (stereo not shown) | 1.801 | 0.2505
CN(C)Cc1nn(C)c2c1CN(C(=O)Nc1cccc(F)c1)C2 | -27.64 & -1.459 | 11.01
Cc1oc(-c2nc(C#N)c(NC(C)(C)C)o2)cc1S(=O)(=O)N1CCCC1 | 26.99 | -1.523
CCOC(=O)CC1CCCCN1C(=O)c1cccc2ccnn12 (stereo not shown) | 13.62 | -7.407

The last 6 entries again:

Compound	Mtb glucose medium	Mtb cholesterol medium
COCc1cc(N(C)Cc2cnccn2)nc(C(C)(C)C)n1	11.58 & 5.561	-2.555
CSC1(CNC(=O)c2ccn(-c3ccccc3F)n2)CCOCC1	12.5 & 8.197	4.81
CC(=O)NCC(=O)N1CCCC(C(=O)c2ccc(C(C)(C)C)cc2)C1 (stereo not shown)	1.801	0.2505
CN(C)Cc1nn(C)c2c1CN(C(=O)Nc1cccc(F)c1)C2	-27.64 & -1.459	11.01
Cc1oc(-c2nc(C#N)c(NC(C)(C)C)o2)cc1S(=O)(=O)N1CCCC1	26.99	-1.523
CCOC(=O)CC1CCCCN1C(=O)c1cccc2ccnn12 (stereo not shown)	13.62	-7.407